PubChem BioAssay AID504764, Drosophila RNAi Screening Center, 2011

- Purpose: 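Knock-downs that raise or lower a Notch target reporter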 (primary screen)
- Cells: Drosophila Kc167 cells
- Reagents: long dsRNA against Drosophila genes
- Duration: about 5 days (4 days dsRNA, then 24 h after transfection)
- Challenge: transfection of constitutively active membrane-tethered Notch lacking the extracellular domain, read 24 h later
- Measured: 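Light from a Notch-responsive E(spl)m3 luciferase reporter under active Notch, with control-promoter and no-Notch reporter wells to normalise; raw counts from paired wells a and b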
- Reading the numbers: induced reporter light, run 1, well a and induced reporter light, run 1, well b: higher = more light from the Notch target reporter with active Notch; control promoter light, run 1, well a and control promoter light, run 1, well b: higher = more light from the viral control promoter (cell number, transfection, viability); uninduced reporter light, run 1, well a: higher = more light from the Notch target reporter without active Notch
- Call rule: 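Wells with low control signal or poorly matching duplicates excluded; duplicates averaged; per source plate, z beyond ±2 for induced/control log2 ratio or beyond ±1.8 for induced/uninduced marks a hit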
- Calls: active = modifier hit (raised or lowered Notch signal); inactive = not a hit
In all, the deposit lists about 22,000 reagents; below is a random part of those with a known target gene and a result. Of all reagents, 403 (1.9%) got an active call. 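Unnormalised raw counts per well; ratio z-scores behind the hit calls and whether each hit raises or lowers signal are not deposited.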 A number with no mark means an inactive call. Not stated in the record: the amount of reagent.

gene | amplicon | induced reporter light, run 1, well a | induced reporter light, run 1, well b | control promoter light, run 1, well a | control promoter light, run 1, well b | uninduced reporter light, run 1, well a
CG11475 | DRSC04113 | 2.23e5 | 2.05e5 | 1.52e5 | 2.05e5 | 18192
trbd | DRSC16494 | 1.09e5 | 1.00e5 | 65250 | 62230 | 7955
CG12134 | DRSC06109 | 2.16e5 | 1.97e5 | 2.22e5 | 1.88e5 | 17275
Ahcy | DRSC19329 | 1.47e5 | 1.40e5 | 1.72e5 | 1.46e5 | 12705
Gr57a | DRSC06401 | 1.31e5 | 1.51e5 | 1.73e5 | 1.41e5 | 5255
CG7910 | DRSC16341 | 73170 | 90585 | 69305 | 71305 | 5600
Atg10 | DRSC06172 | 1.89e5 | 2.60e5 | 3.02e5 | 2.96e5 | 23095
CG3906 | DRSC04431 | 64610 | 70085 | 58790 | 54850 | 5005
Nek2 | DRSC18124 | 2.03e5 | 1.68e5 | 2.11e5 | 1.77e5 | 15120
grh | DRSC05680 | 1.59e5 | 1.46e5 | 1.97e5 | 2.21e5 | 13692
grh | DRSC05683 | 1.14e5 | 1.02e5 | 1.93e5 | 1.31e5 | 8878
grh | DRSC07624 | 74550 | 86420 | 1.64e5 | 1.82e5 | 7000
grh | DRSC07625 | 1.13e5 | 1.15e5 | 96170 | 1.21e5 | 8142
Drat | DRSC06600 | 2.09e5 | 1.46e5 | 1.56e5 | 1.74e5 | 17010
ear | DRSC15675 | 86150 | 80685 | 35905 | 32540 | 7150
Mur2B | DRSC18545 | 1.40e5 | 1.39e5 | 2.92e5 | 3.17e5 | 9892
Mur2B | DRSC18546 | 1.37e5 | 1.22e5 | 2.31e5 | 2.40e5 | 9190
Lgr3 | DRSC15704 | 1.58e5 | 1.47e5 | 1.71e5 | 1.85e5 | 15230
Lgr3 | DRSC15706 | 1.40e5 | 1.95e5 | 2.11e5 | 2.00e5 | 13570
CG4666 | DRSC18379 | 1.28e5 | 1.40e5 | 2.26e5 | 2.82e5 | 9700
CG10011 | DRSC14174 | 1.31e5 | 1.33e5 | 1.71e5 | 2.04e5 | 8585
CG11158 | DRSC19389 | 46380 (active) | 42635 | 40755 | 39105 | 2610
Nct | DRSC16172 | 36200 | 37005 | 41725 | 38125 | 3620
key | DRSC04285 | 1.48e5 | 2.01e5 | 1.18e5 | 1.26e5 | 11755
Pgant3 | DRSC05942 | 69650 (active) | 88030 | 55095 | 52265 | 5055
Nup93-1 | DRSC19344 | 1.01e5 | 88315 | 83320 | 1.06e5 | 4370
sbm | DRSC20185 | 47825 | 38240 | 34955 | 32970 | 5750
CG14464 | DRSC07760 | 92695 (active) | 1.22e5 | 1.83e5 | 1.56e5 | 3880

6 entries from above, reformatted.
gene,amplicon,"induced reporter light, run 1, well a","induced reporter light, run 1, well b","control promoter light, run 1, well a","control promoter light, run 1, well b","uninduced reporter light, run 1, well a"
grh,DRSC07624,74550,86420,1.64e5,1.82e5,7000
grh,DRSC07625,1.13e5,1.15e5,96170,1.21e5,8142
Drat,DRSC06600,2.09e5,1.46e5,1.56e5,1.74e5,17010
ear,DRSC15675,86150,80685,35905,32540,7150
Mur2B,DRSC18545,1.40e5,1.39e5,2.92e5,3.17e5,9892
Mur2B,DRSC18546,1.37e5,1.22e5,2.31e5,2.40e5,9190

More results:
gene | amplicon | induced reporter light, run 1, well a | induced reporter light, run 1, well b | control promoter light, run 1, well a | control promoter light, run 1, well b | uninduced reporter light, run 1, well a
Dgkepsilon | DRSC07399 | 99145 | 1.09e5 | 72870 | 75290 | 7245
tipE | DRSC08738 | 1.62e5 | 1.84e5 | 1.20e5 | 51100 | 11135
tilB | DRSC20634 | 84025 | 93820 | 97210 | 1.42e5 | 9665
CG9121 | DRSC03142 | 50030 | 36305 | 42350 | 32870 | 2388
CG14294 | DRSC14774 | 2.03e5 | 1.47e5 | 2.01e5 | 1.97e5 | 11195
CG14374 | DRSC14834 | 1.92e5 | 2.70e5 | 2.55e5 | 1.94e5 | 17642
insb | DRSC06995 | 91560 | 94460 | 67935 | 85055 | 8780
jub | DRSC19367 | 1.10e5 (active) | 81040 | 52620 | 54745 | 7565
CG31436 | DRSC14661 | 1.12e5 | 1.23e5 | 1.55e5 | 1.57e5 | 10515
Tak1 | DRSC20390 | 88735 | 97230 | 1.17e5 | 1.11e5 | 7945
Tak1 | DRSC20561 | 96540 | 1.03e5 | 96195 | 1.40e5 | 11215
Tak1 | DRSC20562 | 1.02e5 | 94705 | 1.09e5 | 1.69e5 | 12725
RSG7 | DRSC20274 | 1.19e5 | 77155 | 94825 | 92325 | 12335
CG33225 | DRSC03881 | 85915 | 1.01e5 | 79935 | 76355 | 8370
CG3165 | DRSC00573 | 1.88e5 | 2.03e5 | 2.12e5 | 2.27e5 | 16792
bab2 | DRSC08150 | 95990 | 98010 | 1.48e5 | 1.89e5 | 8750
bab2 | DRSC08380 | 26115 | 19592 | 36180 | 41935 | 3710
CG31957 | DRSC00207 | 98530 | 87575 | 1.31e5 | 1.41e5 | 7095
AANATL4 | DRSC06774 | 37370 | 38795 | 39845 | 42340 | 3632
Oscillin | DRSC03001 | 1.83e5 | 1.59e5 | 1.86e5 | 1.69e5 | 11400
Cpr50Ca | DRSC05454 | 2.01e5 | 1.68e5 | 2.51e5 | 2.51e5 | 15360
Cpr50Ca | DRSC06372 | 97170 | 83455 | 1.22e5 | 1.21e5 | 8780
Cpr50Ca | DRSC06375 | 93445 | 96950 | 1.28e5 | 92290 | 9382
